Reference: doi:10.64898/2025.12.25.696480
No constants are given. Whether binding was seen depends on the method and setting. Binding seen in cells or lysates may run through a third protein. Some entries that bind do so weakly or less than the wild type. Sequences can lack the tags named with a protein.

Target: T1, GST-PIN2HL (Arabidopsis) (UniProt Q9LU77)
T1 sequence: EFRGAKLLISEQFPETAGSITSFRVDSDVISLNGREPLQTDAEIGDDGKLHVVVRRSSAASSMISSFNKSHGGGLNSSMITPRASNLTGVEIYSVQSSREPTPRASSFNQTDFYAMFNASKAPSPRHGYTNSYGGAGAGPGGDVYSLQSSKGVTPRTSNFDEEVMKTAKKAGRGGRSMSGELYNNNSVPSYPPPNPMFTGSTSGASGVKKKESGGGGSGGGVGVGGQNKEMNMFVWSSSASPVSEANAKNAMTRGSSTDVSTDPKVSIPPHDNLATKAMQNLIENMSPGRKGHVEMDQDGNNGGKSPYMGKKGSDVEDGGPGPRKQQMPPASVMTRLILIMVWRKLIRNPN
Assay: pull-down

- binding: binds
B1: PUB41(ΔU)-eGFP (domain or fragment, UniProt Q0WUF6 122-559)
chain: MDKDPNPSPGQSPGPGDKDPEPEILPPVEENSPSDYDAVMEAIRARSKNSMSPTTSLESVTIGQSSYHPVRAVSMFSSSTTSSSSGVFAGADSPFRNAMSFSSTDHSSSPMSPEEEEIFNKLRGTDIFDHEQGLILLRKMTRSSEDLRVSLCTDRILSFLRSLLVSRYNLVQTNAAASVVNLSLEKQNKVKIVRSGFVPLLIDVLKSGTTEAQEHVAGALFSLALEDENKMVIGVLGAVEPLLHALRSSESERARQDAALALYHLSLIPSNRTRLVRAGAVPTLLSMVRSGDSTSRILLVLCNLAACPDGKGAMLDGNAVAILVGKLREVGGGDSEAARENCVAVLLTLCQGNLRFRGLASEAGAEEVLMEVEENGNERVKEKASKILLAMRGGGGGESEFGENAEAREWNRMLEATGLSRTQFQGGQNGGFAYSSQF
